# The supplement of paper PMC9233669
# Variants at the background level are over-represented here.
# Tests used:
# [1] = tested on: biotinyl-Val-oxazolone; assay: self-aminoacylation, catalytic enhancement (BVO) (fold over background); higher = more active; k-Seq, kA / k0A0; sequences stand for … in GGGAAUGGAUCCACAUCUACGAAUUC…UUCACUGCAGACUUGACGAAGCUG
# How it was run: (§1)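 Each biotinyl-aminoacyl-oxazolone, at 2–1250 μM, was incubated with mutagenized RNA pools (0.43 μM) carrying a 21-nt variable region. The 50 μL reactions contained HEPES/NaCl/KCl/MgCl2/CaCl2 buffer with 5% acetonitrile at pH 6.9–7.0 and ran for 90 minutes at room temperature. After streptavidin capture, RNA was measured by qPCR in triplicate and by Illumina sequencing, and catalytic enhancement was calculated as median kA over the uncatalyzed rate from a pseudo-first-order fit of per-sequence fraction reacted.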
# [2] = tested on: biotinyl-Trp-oxazolone; assay: self-aminoacylation, catalytic enhancement (BWO) (fold over background); higher = more active; k-Seq, kA / k0A0; sequences stand for … in GGGAAUGGAUCCACAUCUACGAAUUC…UUCACUGCAGACUUGACGAAGCUG
# How it was run: as §1
# [3] = tested on: biotinyl-Phe-oxazolone; assay: self-aminoacylation, catalytic enhancement (BFO) (fold over background); higher = more active; k-Seq, kA / k0A0; sequences stand for … in GGGAAUGGAUCCACAUCUACGAAUUC…UUCACUGCAGACUUGACGAAGCUG
# How it was run: as §1
# [4] = tested on: biotinyl-Met-oxazolone; assay: self-aminoacylation, catalytic enhancement (BMO) (fold over background); higher = more active; k-Seq, kA / k0A0; sequences stand for … in GGGAAUGGAUCCACAUCUACGAAUUC…UUCACUGCAGACUUGACGAAGCUG
# How it was run: as §1
# [5] = tested on: biotinyl-Ile-oxazolone; assay: self-aminoacylation, catalytic enhancement (BIO) (fold over background); higher = more active; k-Seq, kA / k0A0; sequences stand for … in GGGAAUGGAUCCACAUCUACGAAUUC…UUCACUGCAGACUUGACGAAGCUG
# How it was run: as §1
# [6] = tested on: biotinyl-Leu-oxazolone; assay: self-aminoacylation, catalytic enhancement (BLO) (fold over background); higher = more active; k-Seq, kA / k0A0; sequences stand for … in GGGAAUGGAUCCACAUCUACGAAUUC…UUCACUGCAGACUUGACGAAGCUG
# How it was run: as §1
Sequence,self-aminoacylation [1],self-aminoacylation [2],self-aminoacylation [3],self-aminoacylation [4],self-aminoacylation [5],self-aminoacylation [6]
UUUACCCUGGUCAUCGACUGA [Fam2.1 aminoacylation ribozyme variant],0.837,0.787,0.354,0.746,0.92,0.723
CUACACUUCAAGCAAUCGCUC [Fam1B.1 aminoacylation ribozyme variant],1.07,0.984,0.667,1.19,1.58,1.3
CUACCCCAAACAAUCGGUCUG [Fam1A.1 aminoacylation ribozyme variant],1.07,0.653,0.461,0.944,0.851,0.891
CUAAUUCACACAAUCGGUCUG [Fam1A.1 aminoacylation ribozyme variant],0.771,0.598,0.759,0.874,0.912,0.85
AAGUUUCCUAAUAGCCGCAAG [Fam3.1 aminoacylation ribozyme variant],0.763,0.415,0.509,1.04,1.14,1.08
CCACACUUCAAGCAAUCUGUG [Fam1B.1 aminoacylation ribozyme variant],0.635,0.383,0.656,0.547,0.514,0.657
CCACACUUUAAGCAAUCGAUC [Fam1B.1 aminoacylation ribozyme variant],0.659,0.507,0.947,0.496,0.569,0.461
AAGAUUGCUAAUAGUAGCAAG [Fam3.1 aminoacylation ribozyme variant],0.849,1.51,0.964,0.882,1.29,0.884
CCACACUUCAAGCCAACGGUC [Fam1B.1 aminoacylation ribozyme variant],1.05,0.708,0.532,0.806,0.84,1.04
CCACAAUUCAAGCAGUCGGUC [Fam1B.1 aminoacylation ribozyme variant],1.22,0.925,1.06,1.11,1.36,1.17
UUUCACCUAGGUCAUCGGUUG [Fam2.2 aminoacylation ribozyme variant],1.24,0.998,1.47,1.21,1.22,0.936
AAGUUUGCUAUUAGUCGCAAC [Fam3.1 aminoacylation ribozyme variant],1.04,0.879,0.969,0.848,1.16,1.14
CUACUUCCCACAAUCGGUCUG [Fam1A.1 aminoacylation ribozyme variant],0.888,1.04,0.493,0.846,0.867,0.992
AUUACCCUGUUCAUCGAUUGA [Fam2.1 aminoacylation ribozyme variant],1.2,1.03,1.02,0.992,1.27,1.01
AAGUUUGCUAAUAGUCGAAAA [Fam3.1 aminoacylation ribozyme variant],1.54,1.66,1.54,2.08,1.52,1.48
CCACACUUCUAGCAUUCGGUC [Fam1B.1 aminoacylation ribozyme variant],1.16,1.33,0.756,0.998,1.24,0.789
AAGUUUGCGAAUAGUCGCAUG [Fam3.1 aminoacylation ribozyme variant],1.08,1,1.13,1.04,1.1,1.23
CCACACUUCAACCAAUAGGUC [Fam1B.1 aminoacylation ribozyme variant],0.672,0.497,0.931,0.61,0.791,0.611
CCACAGUGCAAGCAAUCGGUC [Fam1B.1 aminoacylation ribozyme variant],1.22,0.903,0.719,1.02,1.09,1.13
CUACUUUAAACACUCGGUCUG [Fam1A.1 aminoacylation ribozyme variant],0.776,0.531,0.579,0.933,0.904,0.792
AUUACCCUGGUCAGCGAGUCA [Fam2.1 aminoacylation ribozyme variant],0.955,0.33,0.324,0.674,0.893,0.732
CUACUUCAAACCAUCGGUCUA [Fam1A.1 aminoacylation ribozyme variant],0.814,0.453,1.04,0.79,0.945,0.736
CCUCACUUCACGCAAUCGGUC [Fam1B.1 aminoacylation ribozyme variant],1.1,1.17,1.04,0.916,1.17,0.752
CCACACUUCCAGCAAUCCGUC [Fam1B.1 aminoacylation ribozyme variant],1.76,1.24,1.28,1.23,1.49,1.35
AAGUUUGCUAAUACUCGCAAU [Fam3.1 aminoacylation ribozyme variant],1,0.716,0.831,0.964,0.971,0.931
AAGUUUGCAAAUAGUCGGAAG [Fam3.1 aminoacylation ribozyme variant],1.05,1.28,1.25,1.02,1.23,0.749

Sequence,self-aminoacylation [1],self-aminoacylation [2],self-aminoacylation [3],self-aminoacylation [4],self-aminoacylation [5],self-aminoacylation [6]
AAGUCUGCUAAUAGGCGCAAG [Fam3.1 aminoacylation ribozyme variant],1.16,1.51,1.02,0.886,0.854,0.969
CCGCACUUCAAGCCAUCGGUC [Fam1B.1 aminoacylation ribozyme variant],2.26,2.01,2.13,1.53,1.66,1.96
AAGAUUGCUAAUAGUCGCCAG [Fam3.1 aminoacylation ribozyme variant],1.57,2.02,0.817,1.15,1.39,1.39
GUACUUCAAACAAUGGGUCUG [Fam1A.1 aminoacylation ribozyme variant],1.11,1.56,1.15,1.19,1.44,1.24
CUGCUUCAAACACUCGGUCUG [Fam1A.1 aminoacylation ribozyme variant],1.12,0.676,0.451,1.1,0.917,1.01
AUUACCCGGGUAAUCGAGUGA [Fam2.1 aminoacylation ribozyme variant],5.84,13.2,81,12.1,5.16,13.9
CUACUUCAAAGAAUCGGUCGG [Fam1A.1 aminoacylation ribozyme variant],0.795,1.12,1.37,0.844,0.763,1.05
CUACCACAAACAAUCGGUCUG [Fam1A.1 aminoacylation ribozyme variant],0.805,0.664,1.33,0.75,0.812,0.568
CUACUCCAAACAAUCGGUCAG [Fam1A.1 aminoacylation ribozyme variant],0.715,0.934,1.22,0.567,0.728,0.603
AUUACCCUUGUCAUCGAGUGC [Fam2.1 aminoacylation ribozyme variant],1.07,0.814,1.11,0.925,1.09,1.11
CUACUUCAAAAAAUUGGUCUG [Fam1A.1 aminoacylation ribozyme variant],0.768,0.761,0.842,0.83,0.931,0.903
AUUAUCCUGGCCAUCGAGUGA [Fam2.1 aminoacylation ribozyme variant],1.69,2.77,13.8,2.99,1.92,2.98
AAGUUUGCUAAUAGUCGCGAC [Fam3.1 aminoacylation ribozyme variant],0.909,1.19,1.05,1,0.944,0.907
AAGUGUGCUAAUAGUCACAAG [Fam3.1 aminoacylation ribozyme variant],1.35,3.91,6.87,1.82,1.41,1.22
CUACUUCAAACAAUGGCUCUG [Fam1A.1 aminoacylation ribozyme variant],0.75,0.378,0.965,0.771,0.845,0.715
AAGUUUGGUAAUGGUCGCAAG [Fam3.1 aminoacylation ribozyme variant],0.977,1.02,1.17,0.943,0.939,0.866
AACUUUGCUAAUAGUCGCAAU [Fam3.1 aminoacylation ribozyme variant],2.51,2.77,6.33,2.79,2.94,3.35
CCAAACUUCAAGCAAUCGCUC [Fam1B.1 aminoacylation ribozyme variant],1.39,1.51,0.675,1.3,1.28,1.14
AAGUUUGGUAAUAGUCGCGAG [Fam3.1 aminoacylation ribozyme variant],1.51,1.65,2.51,1.56,1.98,1.61
CCACACUUCAAGCAAUUCGUC [Fam1B.1 aminoacylation ribozyme variant],1.05,0.733,0.998,0.684,0.917,0.589
CUACUUAAAACAUUCGGUCUG [Fam1A.1 aminoacylation ribozyme variant],1.08,0.936,0.827,1.3,1.23,1.14
AAGUUUGCUAAUACUCGCAUG [Fam3.1 aminoacylation ribozyme variant],0.697,0.582,0.905,0.692,0.747,0.578
CUACUUUAAACAAUCGGUCCG [Fam1A.1 aminoacylation ribozyme variant],0.936,1.46,0.755,1.04,0.878,0.861
AUUCGCUUAGGUCAUCGGGUG [Fam2.2 aminoacylation ribozyme variant],4.24,6.47,52.5,7.02,4.11,8
ACACACUUCUAGCAAUCGGUC [Fam1B.1 aminoacylation ribozyme variant],1.01,0.781,1.23,0.784,1.06,0.879
